Measured data: PubChem BioAssay AID1224828 (NIAID, 2016)
In all, the deposit lists about 17,000 reagents; below is a part drawn at random. Over the whole deposit, 762 (4.5%) are marked active. 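Active calls include both raised and lowered p65 entry, mostly lowered; wells with fewer than 50 cells lack a z-score.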 Raw values are not corrected between plates. A number with no mark means an inactive call.

Test: 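Regulators linking TLR4 signalling to p65 nuclear translocation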 (primary screen)
System: mouse RAW264.7 G9 macrophage reporter cells (GFP-p65, Tnf promoter-mCherry)
Reagent: siRNA pool against mouse genes, 100 nM
Time to read-out: 2 days siRNA transfection, then 40 min LPS before fixation
Challenge: LPS (Salmonella minnesota R595) at 10 ng/ml
Detection: 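Imaged p65 nuclear translocation ratio, normalised to the plate median, converted to robust z-scores and averaged across two replicates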
Direction: p65 translocation robust z-score: higher = more nuclear NF-kappaB p65 after LPS than the plate median; nuclear/cytoplasmic p65 ratio: higher = more nuclear NF-kappaB p65
Active means: 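Active if robust z is above 3.3 (negative regulators) or below -1.56, the Tlr4 control median (positive regulators); activity score 50 or more; control wells not called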
Meaning of the calls: active = hit (p65 shift raised or lowered); inactive = no clear change

| Target gene | p65 translocation robust z-score | nuclear/cytoplasmic p65 ratio, rep 1 | nuclear/cytoplasmic p65 ratio, rep 2 | low cell count flag |
| --- | --- | --- | --- | --- |
| Rrbp1 (ribosome binding protein 1) | -0.81 | 1.31 | 1.13 | enough cells to score |
| Mal | 1.35 | 1.95 | 1.72 | enough cells to score |
| Slc25a21 | -0.49 | 1.29 | 1.24 | enough cells to score |
| Abcf2 (ATP-binding cassette, sub-family F member 2) | 1.62 | 1.85 | 1.93 | enough cells to score |
| Cby2 (chibby family member 2) | 0.82 | 1.87 | 1.62 | enough cells to score |
| Inpp5a (inositol polyphosphate-5-phosphatase A) | -0.62 | 1.34 | 1.35 | enough cells to score |
| Plpp2 (phospholipid phosphatase 2) | -1.4 | 1.26 | 1.27 | enough cells to score |
| Cd82 (CD82 antigen) | 0.97 | 1.58 | 1.53 | enough cells to score |
| Ube2v2 (ubiquitin-conjugating enzyme E2 variant 2) | 0.59 | 1.44 | 1.73 | enough cells to score |
| Trim30b (tripartite motif-containing 30B) | 0.55 | 1.45 | 1.6 | enough cells to score |
| Helt (helt bHLH transcription factor) | 0.32 | 1.64 | 1.64 | enough cells to score |
| Lcn5 (lipocalin 5) | 0.99 | 1.69 | 1.56 | enough cells to score |
| Dsn1 (DSN1 homolog, MIS12 kinetochore complex component) | 0.61 | 1.5 | 1.47 | enough cells to score |
| Lkaaear1 (LKAAEAR motif containing 1 (IKAAEAR murine motif)) | 1.55 | 1.49 | 1.49 | enough cells to score |
| Gpr160 (G protein-coupled receptor 160) | -1.31 | 1.28 | 1.43 | enough cells to score |
| Tkfc (triokinase, FMN cyclase) | -0.06 | 1.68 | 1.38 | enough cells to score |
| Adpgk (ADP-dependent glucokinase) | -0.46 | 1.4 | 1.4 | enough cells to score |
| Tmub1 (transmembrane and ubiquitin-like domain containing 1) | – | 1.88 | 0.975 | fewer than 50 cells per well; well left out of scoring |
| C230012O17Rik (RIKEN cDNA C230012O17 gene) | -0.1 | 1.57 | 1.77 | enough cells to score |
| Trex1 (three prime repair exonuclease 1) | -0.6 | 1.3 | 1.12 | enough cells to score |
| Snapc3 (small nuclear RNA activating complex, polypeptide 3) | -0.52 | 1.5 | 1.45 | enough cells to score |
| Rasa3 (RAS p21 protein activator 3) | -0.94 | 1.39 | 1.32 | enough cells to score |
| Vmn1r201 (vomeronasal 1 receptor 201) | -0.17 | 1.44 | 1.14 | enough cells to score |
| Ptprt (protein tyrosine phosphatase receptor type T) | -0.32 | 1.7 | 1.29 | enough cells to score |
| Lhx4 (LIM homeobox protein 4) | 2.25 | 2.02 | 1.92 | enough cells to score |

Copied from above for reference:
| Target gene | p65 translocation robust z-score | nuclear/cytoplasmic p65 ratio, rep 1 | nuclear/cytoplasmic p65 ratio, rep 2 | low cell count flag |
| --- | --- | --- | --- | --- |
| Trim30b (tripartite motif-containing 30B) | 0.55 | 1.45 | 1.6 | enough cells to score |
| Helt (helt bHLH transcription factor) | 0.32 | 1.64 | 1.64 | enough cells to score |
| Lcn5 (lipocalin 5) | 0.99 | 1.69 | 1.56 | enough cells to score |
| Dsn1 (DSN1 homolog, MIS12 kinetochore complex component) | 0.61 | 1.5 | 1.47 | enough cells to score |

The list goes on:
| Target gene | p65 translocation robust z-score | nuclear/cytoplasmic p65 ratio, rep 1 | nuclear/cytoplasmic p65 ratio, rep 2 | low cell count flag |
| --- | --- | --- | --- | --- |
| Klhl5 (kelch-like 5) | 0.54 | 1.62 | 1.51 | enough cells to score |
| Gal3st2 (galactose-3-O-sulfotransferase 2) | – | 1.28 | 1.18 | fewer than 50 cells per well; well left out of scoring |
| Wdfy2 (WD repeat and FYVE domain containing 2) | – | 1.65 | 0.977 | fewer than 50 cells per well; well left out of scoring |
| Kel (Kell metallo-endopeptidase) | 1.19 | 1.52 | 1.64 | enough cells to score |
| Sox17 (SRY (sex determining region Y)-box 17) | 0.94 | 1.56 | 1.32 | enough cells to score |
| Ocrl (OCRL, inositol polyphosphate-5-phosphatase) | -0.07 | 1.66 | 1.54 | enough cells to score |
| Krtap19-3 (keratin associated protein 19-3) | 0.93 | 1.55 | 1.67 | enough cells to score |
| Acox3 (acyl-Coenzyme A oxidase 3, pristanoyl) | -0.28 | 1.58 | 1.62 | enough cells to score |
| Kcnj14 | -0.59 | 1.36 | 1.36 | enough cells to score |
| Cox19 (cytochrome c oxidase assembly protein 19) | – | 1.28 | 1.32 | fewer than 50 cells per well; well left out of scoring |
| Colec10 (collectin sub-family member 10) | -0.14 | 1.74 | 1.49 | enough cells to score |
| 4933411G06Rik (RIKEN cDNA 4933411G06 gene) | – | 1.3 | 1.31 | fewer than 50 cells per well; well left out of scoring |
| Sap130 (Sin3A associated protein 130) | – | 1.19 | 1.26 | fewer than 50 cells per well; well left out of scoring |
| Tlr6 (toll-like receptor 6) | -1.55 | 1.48 | 1.19 | enough cells to score |
| Phxr4 (per-hexamer repeat gene 4) | 0.32 | 1.52 | 1.25 | enough cells to score |
| Dkk3 (dickkopf WNT signaling pathway inhibitor 3) | – | 1.55 | 1.67 | fewer than 50 cells per well; well left out of scoring |
| Polrmt (polymerase (RNA) mitochondrial (DNA directed)) | – | 1.44 | 1.27 | fewer than 50 cells per well; well left out of scoring |
| Card14 (caspase recruitment domain family, member 14) | -0.9 | 1.33 | 1.27 | enough cells to score |
| Rasgef1b (RasGEF domain family, member 1B) | 1.02 | 1.49 | 1.35 | enough cells to score |
| Pitpnm3 (PITPNM family member 3) | 0.99 | 1.83 | 1.51 | enough cells to score |
| Snai2 (snail family zinc finger 2) | -0.23 | 1.49 | 1.55 | enough cells to score |
| Nucb2 (nucleobindin 2) | -0.31 | 1.38 | 1.39 | enough cells to score |
| Vps35l (VPS35 endosomal protein sorting factor like) | -0.07 | 1.43 | 1.52 | enough cells to score |
| Ddx27 (DEAD box helicase 27) | 0.5 | 1.61 | 1.66 | enough cells to score |
| Aph1b (aph1 homolog B, gamma secretase subunit) | – | 1.04 | 1.45 | fewer than 50 cells per well; well left out of scoring |
| Mbd6 (methyl-CpG binding domain protein 6) | -0.74 | 1.48 | 1.64 | enough cells to score |
| Cep83os (centrosomal protein 83, opposite strand) | – | 1.52 | 1.25 | fewer than 50 cells per well; well left out of scoring |
| Vkorc1 (vitamin K epoxide reductase complex, subunit 1) | – | 1.65 | 1.22 | fewer than 50 cells per well; well left out of scoring |
| Rhov (ras homolog family member V) | -0.04 | 1.49 | 1.53 | enough cells to score |
| Ndc80 (NDC80 kinetochore complex component) | – | 1.26 | 1.2 | fewer than 50 cells per well; well left out of scoring |
| Edrf1 (erythroid differentiation regulatory factor 1) | – | 1.82 | 1.68 | fewer than 50 cells per well; well left out of scoring |
| Phlda2 (pleckstrin homology like domain, family A, member 2) | -0.45 | 1.43 | 1.35 | enough cells to score |
| Or10j27 (olfactory receptor family 10 subfamily J member 27) | 0.02 | 1.67 | 1.37 | enough cells to score |
| Triobp (TRIO and F-actin binding protein) | -0.23 | 1.4 | 1.17 | enough cells to score |
